Source: the supplement of paper PMC10849652
The list shows a part of the results.

The chains behind the UniProt entries cited, without tags or fusion partners. Where a name states a change or a piece, a line headed by the entry shows the natural chain unless it says otherwise.
UniProt Q86US8: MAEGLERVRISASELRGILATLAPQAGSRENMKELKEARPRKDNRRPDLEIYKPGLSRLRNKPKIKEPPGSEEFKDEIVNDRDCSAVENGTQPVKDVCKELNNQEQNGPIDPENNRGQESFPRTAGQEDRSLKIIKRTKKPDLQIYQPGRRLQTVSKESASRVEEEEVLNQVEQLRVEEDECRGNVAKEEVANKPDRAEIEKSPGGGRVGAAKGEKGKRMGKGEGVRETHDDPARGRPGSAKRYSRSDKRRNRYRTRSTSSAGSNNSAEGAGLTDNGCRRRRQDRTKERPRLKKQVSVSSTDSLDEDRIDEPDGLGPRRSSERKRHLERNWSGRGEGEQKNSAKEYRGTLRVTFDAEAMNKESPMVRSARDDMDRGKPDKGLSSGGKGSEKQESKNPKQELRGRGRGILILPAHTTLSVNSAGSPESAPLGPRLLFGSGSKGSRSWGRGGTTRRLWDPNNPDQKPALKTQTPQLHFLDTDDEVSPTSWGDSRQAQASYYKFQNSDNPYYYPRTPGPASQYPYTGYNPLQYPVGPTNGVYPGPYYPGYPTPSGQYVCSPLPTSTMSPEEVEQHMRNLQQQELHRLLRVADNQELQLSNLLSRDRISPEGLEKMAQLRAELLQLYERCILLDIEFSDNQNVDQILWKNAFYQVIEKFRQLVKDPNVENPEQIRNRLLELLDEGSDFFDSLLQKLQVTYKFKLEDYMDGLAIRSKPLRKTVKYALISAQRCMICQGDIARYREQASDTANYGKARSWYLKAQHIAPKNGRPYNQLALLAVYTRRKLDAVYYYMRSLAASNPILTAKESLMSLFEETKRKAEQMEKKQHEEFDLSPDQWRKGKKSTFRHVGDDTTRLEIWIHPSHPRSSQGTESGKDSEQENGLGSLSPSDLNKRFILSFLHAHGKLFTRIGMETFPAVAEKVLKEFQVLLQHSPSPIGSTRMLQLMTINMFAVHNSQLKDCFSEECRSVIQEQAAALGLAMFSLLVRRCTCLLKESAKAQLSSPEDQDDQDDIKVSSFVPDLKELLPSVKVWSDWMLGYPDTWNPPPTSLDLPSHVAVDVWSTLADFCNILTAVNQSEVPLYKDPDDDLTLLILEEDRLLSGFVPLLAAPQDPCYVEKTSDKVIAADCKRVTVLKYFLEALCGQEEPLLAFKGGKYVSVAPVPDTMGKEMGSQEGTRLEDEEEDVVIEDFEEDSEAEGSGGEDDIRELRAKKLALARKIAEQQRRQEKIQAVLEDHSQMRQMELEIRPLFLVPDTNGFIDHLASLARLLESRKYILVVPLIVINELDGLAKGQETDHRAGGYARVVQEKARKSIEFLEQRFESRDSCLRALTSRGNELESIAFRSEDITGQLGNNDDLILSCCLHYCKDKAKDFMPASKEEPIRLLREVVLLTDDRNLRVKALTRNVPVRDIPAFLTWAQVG
UniProt Q9NRH2: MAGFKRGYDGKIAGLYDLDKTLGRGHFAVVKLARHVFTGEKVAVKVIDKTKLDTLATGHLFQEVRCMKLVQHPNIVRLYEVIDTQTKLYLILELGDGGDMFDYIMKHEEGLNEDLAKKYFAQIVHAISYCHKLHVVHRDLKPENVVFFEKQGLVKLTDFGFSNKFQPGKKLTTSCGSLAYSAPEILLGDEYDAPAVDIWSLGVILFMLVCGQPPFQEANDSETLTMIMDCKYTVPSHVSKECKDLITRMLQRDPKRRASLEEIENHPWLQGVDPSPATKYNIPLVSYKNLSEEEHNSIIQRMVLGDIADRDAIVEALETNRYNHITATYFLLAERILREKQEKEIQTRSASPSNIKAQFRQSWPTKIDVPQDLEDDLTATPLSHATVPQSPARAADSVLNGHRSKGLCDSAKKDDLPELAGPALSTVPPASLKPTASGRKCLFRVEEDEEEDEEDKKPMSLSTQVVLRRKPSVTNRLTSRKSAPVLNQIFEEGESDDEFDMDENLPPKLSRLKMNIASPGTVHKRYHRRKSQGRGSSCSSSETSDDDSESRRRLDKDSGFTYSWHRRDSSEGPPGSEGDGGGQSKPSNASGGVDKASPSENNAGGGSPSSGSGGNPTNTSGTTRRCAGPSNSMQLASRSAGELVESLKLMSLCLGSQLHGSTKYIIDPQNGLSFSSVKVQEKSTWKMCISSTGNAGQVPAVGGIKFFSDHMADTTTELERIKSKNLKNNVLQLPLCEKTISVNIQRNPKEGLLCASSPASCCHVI
UniProt Q15036: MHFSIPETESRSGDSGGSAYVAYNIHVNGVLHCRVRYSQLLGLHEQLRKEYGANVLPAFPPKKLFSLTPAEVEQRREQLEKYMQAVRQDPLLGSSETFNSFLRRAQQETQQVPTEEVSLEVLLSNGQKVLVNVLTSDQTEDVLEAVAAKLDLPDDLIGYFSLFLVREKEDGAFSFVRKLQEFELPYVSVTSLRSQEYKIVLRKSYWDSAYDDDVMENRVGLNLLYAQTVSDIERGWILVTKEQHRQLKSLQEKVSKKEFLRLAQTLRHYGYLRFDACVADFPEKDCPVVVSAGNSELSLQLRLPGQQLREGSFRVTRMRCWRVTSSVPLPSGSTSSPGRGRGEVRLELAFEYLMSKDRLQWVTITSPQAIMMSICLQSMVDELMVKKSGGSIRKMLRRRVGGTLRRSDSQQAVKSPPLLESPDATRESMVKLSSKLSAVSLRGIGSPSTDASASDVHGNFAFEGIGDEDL
UniProt P09012, whole entry, looked up: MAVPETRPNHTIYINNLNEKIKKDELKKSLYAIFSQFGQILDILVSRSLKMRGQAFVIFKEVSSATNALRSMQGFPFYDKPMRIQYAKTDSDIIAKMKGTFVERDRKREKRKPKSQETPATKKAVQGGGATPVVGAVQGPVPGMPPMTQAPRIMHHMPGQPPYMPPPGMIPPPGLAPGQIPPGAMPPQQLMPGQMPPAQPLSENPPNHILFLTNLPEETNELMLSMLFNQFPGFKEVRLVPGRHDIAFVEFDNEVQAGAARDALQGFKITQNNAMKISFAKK
UniProt P62308, whole entry, looked up: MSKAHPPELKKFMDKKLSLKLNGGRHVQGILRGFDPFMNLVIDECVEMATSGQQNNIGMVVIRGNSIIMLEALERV
UniProt Q13425: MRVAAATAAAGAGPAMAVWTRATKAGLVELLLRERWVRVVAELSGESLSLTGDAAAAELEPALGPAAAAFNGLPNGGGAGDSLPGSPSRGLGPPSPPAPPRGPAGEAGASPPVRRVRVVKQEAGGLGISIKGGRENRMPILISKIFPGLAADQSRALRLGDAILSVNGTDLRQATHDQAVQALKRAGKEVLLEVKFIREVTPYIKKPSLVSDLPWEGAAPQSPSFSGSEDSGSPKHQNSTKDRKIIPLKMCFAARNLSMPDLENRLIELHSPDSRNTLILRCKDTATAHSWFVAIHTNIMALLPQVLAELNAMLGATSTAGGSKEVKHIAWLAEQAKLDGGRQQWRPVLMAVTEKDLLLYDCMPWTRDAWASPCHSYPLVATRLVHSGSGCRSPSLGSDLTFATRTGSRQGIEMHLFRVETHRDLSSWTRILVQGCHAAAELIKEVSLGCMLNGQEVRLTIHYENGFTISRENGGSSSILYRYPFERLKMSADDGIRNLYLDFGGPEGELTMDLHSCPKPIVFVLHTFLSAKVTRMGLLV
UniProt Q92925, whole entry, looked up: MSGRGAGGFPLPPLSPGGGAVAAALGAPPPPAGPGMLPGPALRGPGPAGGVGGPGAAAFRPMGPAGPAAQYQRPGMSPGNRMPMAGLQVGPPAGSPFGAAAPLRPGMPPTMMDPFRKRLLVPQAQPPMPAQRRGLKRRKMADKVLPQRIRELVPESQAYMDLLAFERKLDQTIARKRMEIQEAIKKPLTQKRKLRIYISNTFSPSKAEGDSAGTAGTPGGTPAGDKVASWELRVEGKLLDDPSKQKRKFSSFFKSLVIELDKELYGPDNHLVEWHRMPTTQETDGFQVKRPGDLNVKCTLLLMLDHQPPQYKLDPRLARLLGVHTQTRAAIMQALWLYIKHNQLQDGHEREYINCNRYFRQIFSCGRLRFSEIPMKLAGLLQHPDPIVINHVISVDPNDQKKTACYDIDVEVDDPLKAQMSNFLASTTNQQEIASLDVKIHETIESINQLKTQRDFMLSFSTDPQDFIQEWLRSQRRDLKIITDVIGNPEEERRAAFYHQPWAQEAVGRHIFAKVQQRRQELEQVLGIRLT
UniProt Q9H0W8: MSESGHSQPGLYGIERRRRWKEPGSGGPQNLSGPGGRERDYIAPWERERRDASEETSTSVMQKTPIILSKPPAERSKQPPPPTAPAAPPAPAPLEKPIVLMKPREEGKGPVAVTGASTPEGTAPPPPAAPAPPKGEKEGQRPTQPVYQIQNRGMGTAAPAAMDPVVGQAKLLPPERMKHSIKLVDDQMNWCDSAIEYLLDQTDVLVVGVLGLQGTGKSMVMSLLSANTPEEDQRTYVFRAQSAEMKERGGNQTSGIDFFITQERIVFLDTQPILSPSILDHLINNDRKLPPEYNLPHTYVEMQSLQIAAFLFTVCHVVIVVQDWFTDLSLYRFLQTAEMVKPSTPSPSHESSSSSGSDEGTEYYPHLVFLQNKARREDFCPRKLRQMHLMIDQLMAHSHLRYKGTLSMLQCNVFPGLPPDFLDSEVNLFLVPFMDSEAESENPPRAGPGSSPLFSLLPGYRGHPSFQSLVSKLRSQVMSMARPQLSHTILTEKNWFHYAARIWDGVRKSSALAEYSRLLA
UniProt Q96GM5, whole entry, looked up: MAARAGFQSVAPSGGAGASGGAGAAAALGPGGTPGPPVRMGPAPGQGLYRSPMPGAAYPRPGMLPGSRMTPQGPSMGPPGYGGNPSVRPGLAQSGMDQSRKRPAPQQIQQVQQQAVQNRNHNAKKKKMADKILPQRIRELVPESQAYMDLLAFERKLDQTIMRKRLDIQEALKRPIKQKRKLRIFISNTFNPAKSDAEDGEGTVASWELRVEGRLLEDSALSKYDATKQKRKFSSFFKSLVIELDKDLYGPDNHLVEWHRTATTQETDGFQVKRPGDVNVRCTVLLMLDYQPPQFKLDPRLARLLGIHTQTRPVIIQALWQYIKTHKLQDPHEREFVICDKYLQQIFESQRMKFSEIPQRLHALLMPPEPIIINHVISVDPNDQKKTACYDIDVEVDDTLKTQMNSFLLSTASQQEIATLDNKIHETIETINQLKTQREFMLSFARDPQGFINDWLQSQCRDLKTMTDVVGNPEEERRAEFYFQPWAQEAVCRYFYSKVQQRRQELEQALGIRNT
UniProt Q00796: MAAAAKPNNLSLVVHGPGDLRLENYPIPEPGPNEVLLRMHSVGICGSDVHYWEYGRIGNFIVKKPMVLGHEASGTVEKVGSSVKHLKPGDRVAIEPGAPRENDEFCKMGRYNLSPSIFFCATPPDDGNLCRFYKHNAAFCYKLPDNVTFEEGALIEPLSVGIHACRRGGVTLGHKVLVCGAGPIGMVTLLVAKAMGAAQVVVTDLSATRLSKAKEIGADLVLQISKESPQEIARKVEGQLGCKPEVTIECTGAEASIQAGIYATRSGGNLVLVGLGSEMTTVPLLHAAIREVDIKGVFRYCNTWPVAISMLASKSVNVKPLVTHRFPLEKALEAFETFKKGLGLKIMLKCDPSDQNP
UniProt Q96H20: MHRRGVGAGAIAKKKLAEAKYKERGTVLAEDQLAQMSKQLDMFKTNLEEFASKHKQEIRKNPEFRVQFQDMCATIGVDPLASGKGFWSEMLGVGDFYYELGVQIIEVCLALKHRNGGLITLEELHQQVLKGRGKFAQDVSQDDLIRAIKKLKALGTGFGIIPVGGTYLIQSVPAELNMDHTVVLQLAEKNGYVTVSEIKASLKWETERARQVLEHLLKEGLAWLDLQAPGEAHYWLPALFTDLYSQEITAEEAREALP
UniProt Q16637, whole entry, looked up: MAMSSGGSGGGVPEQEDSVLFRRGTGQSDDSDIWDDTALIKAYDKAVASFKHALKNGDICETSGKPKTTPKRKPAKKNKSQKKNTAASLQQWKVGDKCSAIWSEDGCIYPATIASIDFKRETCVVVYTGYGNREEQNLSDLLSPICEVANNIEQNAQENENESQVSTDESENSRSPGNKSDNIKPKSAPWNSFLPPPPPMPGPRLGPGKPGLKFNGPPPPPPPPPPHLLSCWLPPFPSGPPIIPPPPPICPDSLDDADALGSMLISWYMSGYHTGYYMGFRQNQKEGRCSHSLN
UniProt Q9Y5X2: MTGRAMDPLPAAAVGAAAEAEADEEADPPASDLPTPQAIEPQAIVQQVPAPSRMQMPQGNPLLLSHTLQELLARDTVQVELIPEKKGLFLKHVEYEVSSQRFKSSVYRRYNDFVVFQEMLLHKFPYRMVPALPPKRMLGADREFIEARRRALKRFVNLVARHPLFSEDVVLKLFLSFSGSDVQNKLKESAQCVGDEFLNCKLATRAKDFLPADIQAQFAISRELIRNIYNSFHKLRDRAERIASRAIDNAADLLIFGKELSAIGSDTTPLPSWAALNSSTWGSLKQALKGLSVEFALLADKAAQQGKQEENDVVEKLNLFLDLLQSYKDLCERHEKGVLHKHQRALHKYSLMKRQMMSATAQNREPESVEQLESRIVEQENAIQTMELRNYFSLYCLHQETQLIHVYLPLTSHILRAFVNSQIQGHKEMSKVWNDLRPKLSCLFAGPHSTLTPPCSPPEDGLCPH

What was measured:
Assay in all cases: log2 fold change, soluble protein after heating vs DMSO (PISA); higher = thermal stabilisation; K562 lysate, 10 uM; active = over 0.2 and 3.5 SD of the protein, either way, in both replicates (recomputed)
erlotinib = compound: C#Cc1cccc(Nc2ncnc3cc(OCCOC)c(OCCOC)cc23)c1 [erlotinib]
Method in brief: (§1)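 Log-two fold change in thermal stability relative to solvent controls is reported from duplicates. For each sample, crude K562 extract from dounce-homogenised pellets in PBS pH 7.4 with 1 mM MgCl2, at 1 mg/mL protein, was treated with 10 μM compound for 30 min. Aliquots heated for 3 min across 48°C-58°C were pooled, brought to 0.5% NP-40 at 4°C and cleared at 21,000xg for 90 min. The supernatant was quantified by TMTpro 16plex LC-MS/MS with channel sums equalised.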

[1] = compound: C/C(=N\NC(=O)C1=CC(=CC=C1)S(=O)(=O)N2CCOCC2)/C3=C(C=CC(=C3)Cl)O
Method in brief: as §1

[2] = compound: C1=CC(=CC=C1C2=NC3=C(N2)C=C(C=C3)C(=O)N)OC4=CC=C(C=C4)Cl
Method in brief: as §1

[3] = compound: C1=CC2=C(C=CC(=C2)/C=C\3/C(=O)NC(=NCC4=CC=CS4)S3)N=C1
Method in brief: as §1

[4] = compound: C1=CC2=NC=CN=C2C=C1/C=C/3\C(=O)NC(=O)S3
Method in brief: as §1

[5] = compound: C1=CC=C(C=C1)C2=NC(=C(N2)C3=CC=NC=C3)C4=CC(=C(C=C4)Cl)O
Method in brief: as §1

[6] = compound: C1=CC=C2C(=C1)C3=NNC4=CC=CC(=C43)C2=O
Method in brief: as §1

[7] = compound: C1CCN(C1)C(=O)NC2=CC=CC(=C2)NC3=NC=C(C(=N3)NCCC4=CN=CN4)Br
Method in brief: as §1

[8] = compound: C1CN(CCC1(CC2=CC=C(C=C2)Cl)N)C3=NC=NC4=C3C=CN4
Method in brief: as §1

IRAK-1-4 Inhibitor I = compound: C1COCCN1CCN2C3=CC=CC=C3N=C2NC(=O)C4=CC(=CC=C4)[N+](=O)[O-] [IRAK-1-4 Inhibitor I]
Method in brief: as §1

ibrutinib = compound: C=CC(=O)N1CCC[C@@H](n2nc(-c3ccc(Oc4ccccc4)cc3)c3c(N)ncnc32)C1 [ibrutinib]
Method in brief: as §1

[9] = compound: CC(=O)c1cnc2ccc(-c3cc(Cl)c(O)c(Cl)c3)nc2c1N[C@H]1CC[C@H](CN(C)C)CC1
Method in brief: as §1

ralimetinib = compound: CC(C)(C)Cn1c(N)nc2ccc(-c3[nH]c(C(C)(C)C)nc3-c3ccc(F)cc3)nc21 [ralimetinib]
Method in brief: as §1

[10] = compound: CC(C)(O)CC(=O)NCCn1ccc2ncnc(Nc3ccc(Oc4cccc(C(F)(F)F)c4)c(Cl)c3)c21
Method in brief: as §1

[11] = compound: CC(C)C1=C2N=C(C=C(N2N=C1)NCC3=CC=CC=C3)NCCCCCCN
Method in brief: as §1

[12] = compound: CC1=C(C(CC(=O)N1)C2=CC=C(C=C2)C(F)(F)F)C(=O)NC3=C(C=C4C(=C3)C=NN4)F
Method in brief: as §1

[13] = compound: CC1=C(C2=C(C=C1)C(=O)C3=CC=CC=C3N2CCCN)C
Method in brief: as §1

[14] = compound: CC1=C(C=C(C=C1)NC(=O)C2=CC(=CC=C2)C(C)(C)C#N)NC3=CC4=C(C=C3)N=CN(C4=O)C
Method in brief: as §1

[15] = compound: CC1=C(C=C(C=C1)NC(=O)C2=CC(=CC=C2)N(C)C)NC(=O)C3=CC=C(C=C3)O
Method in brief: as §1

[16] = compound: CC1=CC=C(C=C1)SC2=C3C=C(SC3=CN=C2)C(=O)N
Method in brief: as §1

Measured: log2 fold change

SMG6 (UniProt Q86US8)
inactive: erlotinib -0.038 | [1] 0.026 | [2] 0.012 | [3] 0.009 | [4] 0.021 | [5] 0 | [6] -0.092 | [7] -0.04 | [8] -0.005 | IRAK-1-4 Inhibitor I 0.026 | ibrutinib 0.071 | [9] -0.061 | ralimetinib 0.034 | [10] -0.016 | [11] 0.012 | [12] 0.074 | [13] 0.006 | [14] 0.004 | [15] 0.047 | [16] 0.059

SNRK (UniProt Q9NRH2)
inactive: erlotinib -0.505 | [1] -0.351 | [2] -0.054 | [3] -0.081 | [4] -0.019 | [5] 0.038 | [6] 0.16 | [7] -0.011 | [8] -0.094 | IRAK-1-4 Inhibitor I -0.078 | ibrutinib 0.057 | [9] 0.05 | ralimetinib 0.018 | [10] 0.057 | [11] 0.004 | [12] 0.105 | [13] -0.141 | [14] 0.024 | [15] 0.083 | [16] -0.007

SNX17 (UniProt Q15036)
inactive: erlotinib -0.011 | [1] 0.006 | [2] 0 | [3] 0.027 | [4] -0.023 | [5] -0.039 | [6] -0.029 | [7] -0.032 | [8] 0.038 | IRAK-1-4 Inhibitor I 0.019 | ibrutinib -0.05 | [9] -0.003 | ralimetinib -0.006 | [10] -0.057 | [11] -0.027 | [12] -0.044 | [13] -0.064 | [14] 0.008 | [15] -0.02 | [16] -0.001

SNRPA (UniProt P09012)
inactive: erlotinib -0.011 | [1] 0.004 | [2] 0.034 | [3] -0.005 | [4] -0.008 | [5] 0.007 | [6] -0.027 | [7] 0.005 | [8] -0.013 | IRAK-1-4 Inhibitor I 0 | ibrutinib 0.017 | [9] -0.02 | ralimetinib -0.019 | [10] -0.012 | [11] -0.001 | [12] -0.018 | [13] -0.035 | [14] 0.002 | [15] -0.004 | [16] -0.017

SMYD5 (UniProt Q6GMV2)
inactive: erlotinib 0.022 | [1] -0.109 | [2] 0.037 | [3] 0.042 | [4] 0.014 | [5] -0.037 | [6] -0.005 | [7] 0.011 | [8] 0.091 | IRAK-1-4 Inhibitor I 0.014 | ibrutinib 0.055 | [9] 0.066 | ralimetinib -0.042 | [10] 0.004 | [11] 0.035 | [12] -0.022 | [13] 0.029 | [14] 0.013 | [15] -0.044 | [16] -0.033

SNRPG (UniProt P62308)
inactive: erlotinib -0.004 | [1] -0.012 | [2] 0.042 | [3] 0.011 | [4] -0.066 | [5] -0.007 | [6] -0.011 | [7] -0.008 | [8] 0.038 | IRAK-1-4 Inhibitor I 0.019 | ibrutinib -0.003 | [9] -0.033 | ralimetinib -0.005 | [10] -0.053 | [11] 0.003 | [12] 0.023 | [13] -0.015 | [14] -0.022 | [15] -0.009 | [16] -0.019

Two records drawn at random from those above:
SNRK (UniProt Q9NRH2)
inactive: erlotinib -0.505 | [1] -0.351 | [2] -0.054 | [3] -0.081 | [4] -0.019 | [5] 0.038 | [6] 0.16 | [7] -0.011 | [8] -0.094 | IRAK-1-4 Inhibitor I -0.078 | ibrutinib 0.057 | [9] 0.05 | ralimetinib 0.018 | [10] 0.057 | [11] 0.004 | [12] 0.105 | [13] -0.141 | [14] 0.024 | [15] 0.083 | [16] -0.007

SNRPA (UniProt P09012)
inactive: erlotinib -0.011 | [1] 0.004 | [2] 0.034 | [3] -0.005 | [4] -0.008 | [5] 0.007 | [6] -0.027 | [7] 0.005 | [8] -0.013 | IRAK-1-4 Inhibitor I 0 | ibrutinib 0.017 | [9] -0.02 | ralimetinib -0.019 | [10] -0.012 | [11] -0.001 | [12] -0.018 | [13] -0.035 | [14] 0.002 | [15] -0.004 | [16] -0.017

Remaining list, next part:

SNTB2 (UniProt Q13425)
inactive: erlotinib 0.06 | [1] -0.066 | [2] -0.041 | [3] 0.092 | [4] 0.03 | [5] -0.001 | [6] -0.09 | [7] -0.012 | [8] -0.009 | IRAK-1-4 Inhibitor I 0.05 | ibrutinib 0.004 | [9] -0.017 | ralimetinib 0.011 | [10] -0.05 | [11] -0.122 | [12] 0.052 | [13] -0.074 | [14] -0.113 | [15] 0 | [16] 0.033

SMARCD2 (UniProt Q92925)
inactive: erlotinib -0.031 | [1] 0.031 | [2] -0.038 | [3] 0.049 | [4] 0.001 | [5] -0.023 | [6] -0.019 | [7] -0.014 | [8] -0.028 | IRAK-1-4 Inhibitor I -0.014 | ibrutinib 0.026 | [9] 0.001 | ralimetinib 0.028 | [10] 0.048 | [11] -0.009 | [12] -0.007 | [13] -0.033 | [14] -0.033 | [15] -0.015 | [16] 0.026

SMG9 (UniProt Q9H0W8)
inactive: erlotinib 0.033 | [1] 0.035 | [2] 0.025 | [3] 0.016 | [4] 0.007 | [5] 0.044 | [6] -0.069 | [7] -0.011 | [8] 0.065 | IRAK-1-4 Inhibitor I -0.014 | ibrutinib 0.026 | [9] -0.028 | ralimetinib 0.008 | [10] 0.018 | [11] -0.046 | [12] 0.03 | [13] -0.052 | [14] 0.005 | [15] 0.008 | [16] 0.043

SMC1A (UniProt Q14683)
inactive: erlotinib -0.011 | [1] 0 | [2] 0.002 | [3] 0.002 | [4] -0.021 | [5] 0.006 | [6] -0.014 | [7] 0.005 | [8] -0.006 | IRAK-1-4 Inhibitor I 0.01 | ibrutinib 0.01 | [9] -0.009 | ralimetinib -0.017 | [10] -0.025 | [11] -0.009 | [12] 0 | [13] -0.015 | [14] -0.018 | [15] 0.003 | [16] -0.007

SMC2 (UniProt O95347)
inactive: erlotinib -0.001 | [1] -0.011 | [2] -0.011 | [3] 0.001 | [4] 0.012 | [5] 0.013 | [6] -0.036 | [7] 0.003 | [8] -0.008 | IRAK-1-4 Inhibitor I -0.019 | ibrutinib 0.014 | [9] -0.011 | ralimetinib -0.016 | [10] -0.008 | [11] 0.014 | [12] -0.012 | [13] 0 | [14] 0 | [15] 0.013 | [16] 0.001

SMARCD1 (UniProt Q96GM5)
inactive: erlotinib -0.015 | [1] -0.033 | [2] 0.024 | [3] -0.081 | [4] 0.045 | [5] 0.025 | [6] -0.036 | [7] -0.014 | [8] 0.031 | IRAK-1-4 Inhibitor I -0.036 | ibrutinib 0.051 | [9] 0.023 | ralimetinib 0.014 | [10] 0.02 | [11] 0.018 | [12] 0.022 | [13] -0.008 | [14] -0.013 | [15] 0.01 | [16] 0.008

SORD (UniProt Q00796)
inactive: erlotinib 0.014 | [1] 0.027 | [2] 0.021 | [3] -0.022 | [4] -0.004 | [5] 0.024 | [6] 0.01 | [7] 0.041 | [8] 0.014 | IRAK-1-4 Inhibitor I 0.001 | ibrutinib -0.001 | [9] 0.013 | ralimetinib -0.033 | [10] -0.007 | [11] 0.016 | [12] -0.01 | [13] -0.019 | [14] 0.017 | [15] -0.033 | [16] 0.014

SNF8 (UniProt Q96H20)
inactive: erlotinib 0.004 | [1] -0.028 | [2] -0.027 | [3] 0.014 | [4] -0.019 | [5] 0.049 | [6] -0.049 | [7] 0.01 | [8] 0.025 | IRAK-1-4 Inhibitor I -0.008 | ibrutinib 0.023 | [9] -0.001 | ralimetinib 0 | [10] 0.016 | [11] 0.038 | [12] -0.004 | [13] 0.011 | [14] -0.016 | [15] 0 | [16] 0.006

SMN1 (UniProt Q16637)
inactive: erlotinib 0.038 | [1] 0.009 | [2] 0.042 | [3] -0.075 | [4] -0.055 | [5] 0.096 | [6] -0.068 | [7] -0.046 | [8] -0.104 | IRAK-1-4 Inhibitor I 0.02 | ibrutinib -0.085 | [9] -0.028 | ralimetinib 0.01 | [10] -0.01 | [11] 0.002 | [12] 0.001 | [13] -0.018 | [14] 0.018 | [15] 0.137 | [16] -0.045

SNX8 (UniProt Q9Y5X2)
inactive: erlotinib 0.024 | [1] -0.063 | [2] -0.044 | [3] 0.033 | [4] 0.009 | [5] -0.008 | [6] 0.024 | [7] 0.057 | [8] -0.003 | IRAK-1-4 Inhibitor I -0.005 | ibrutinib -0.022 | [9] -0.004 | ralimetinib 0.008 | [10] -0.055 | [11] -0.028 | [12] 0.029 | [13] -0.041 | [14] -0.009 | [15] -0.003 | [16] -0.011
